# In article PMC4756317:
# The exact form of at least one protein or probe is not confirmed.
# Tested on: GAME9 (aa 40-219)
# Experiment: EMSA
# Conditions: 200 ng protein, EMSA with unlabeled annealed oligonucleotides, equimolar probes, 1% agarose gel, pH and temperature not given (cites ref. 59), recombinant protein, protein details: His
sequence,measurement,value
AATCAATTTTCATTAAATACAGCCTGCCACACATGCATATATTGTGTTA (double strand) [C5-SD GCC-box probe],binding result,binds
